Measurements as given in publication doi:10.1101/2025.02.28.640897.
No constants are given. Whether binding was seen depends on the method and setting. In cells and extracts the contact can be indirect. Some binding calls cover weakened binding; strength is not graded here.

Protein sequences, listed by entry. Tags and fused reporters are not part of them. Lines headed by an entry give the natural chain unless they say otherwise; changes in a name come on top. Residues count along the entry.
UniProt Q5SWA1: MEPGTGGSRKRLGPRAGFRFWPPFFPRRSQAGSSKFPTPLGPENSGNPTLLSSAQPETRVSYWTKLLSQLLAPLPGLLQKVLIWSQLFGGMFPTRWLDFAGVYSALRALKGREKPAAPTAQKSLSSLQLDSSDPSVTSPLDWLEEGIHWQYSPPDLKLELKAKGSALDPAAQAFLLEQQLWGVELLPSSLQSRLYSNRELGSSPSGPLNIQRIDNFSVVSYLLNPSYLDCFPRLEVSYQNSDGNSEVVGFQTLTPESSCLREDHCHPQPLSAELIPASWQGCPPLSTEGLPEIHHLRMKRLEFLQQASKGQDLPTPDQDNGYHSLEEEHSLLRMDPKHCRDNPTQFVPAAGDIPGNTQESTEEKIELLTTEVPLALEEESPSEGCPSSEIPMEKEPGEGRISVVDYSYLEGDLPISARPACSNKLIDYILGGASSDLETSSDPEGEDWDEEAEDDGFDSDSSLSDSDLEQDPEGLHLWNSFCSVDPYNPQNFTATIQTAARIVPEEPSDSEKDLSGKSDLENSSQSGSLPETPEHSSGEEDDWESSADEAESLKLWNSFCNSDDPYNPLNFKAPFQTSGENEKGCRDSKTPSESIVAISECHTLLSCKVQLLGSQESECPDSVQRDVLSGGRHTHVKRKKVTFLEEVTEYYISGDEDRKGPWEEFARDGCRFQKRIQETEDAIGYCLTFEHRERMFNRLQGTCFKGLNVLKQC
GFP-ΔPPP1R15B: residues 638-697 of Q5SWA1
UniProt P62136: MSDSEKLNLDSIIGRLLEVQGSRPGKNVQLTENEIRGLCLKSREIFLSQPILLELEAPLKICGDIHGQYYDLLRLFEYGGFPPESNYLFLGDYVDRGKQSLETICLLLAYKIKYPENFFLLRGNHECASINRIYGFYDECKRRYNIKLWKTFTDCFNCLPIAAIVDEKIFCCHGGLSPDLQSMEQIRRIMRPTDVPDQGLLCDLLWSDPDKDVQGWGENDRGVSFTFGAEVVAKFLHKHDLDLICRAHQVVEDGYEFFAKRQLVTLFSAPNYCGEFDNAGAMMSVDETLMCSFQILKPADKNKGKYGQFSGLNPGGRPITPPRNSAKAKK

Key:
Assay in all cases: co-IP
[1] = biological target: PPP1R15B^R658C (GFP-tagged) (UniProt Q5SWA1)
WT PPP1R15B (GFP-tagged) = WT PPP1R15B (GFP-tagged) (UniProt Q5SWA1)
GFP-ΔPPP1R15B = GFP-ΔPPP1R15B (UniProt Q5SWA1)

Measured: binding

PP1 (from UniProt P62136 1-330) (enzyme)
binds: all assays above
